Patent US20180002412A1 (UNIVERSITY OF CONNECTICUT, published 2018)
No constants are given. Whether binding was seen depends on the method and setting. Some binding calls cover weakened binding; strength is not graded here.

Sequences of proteins named here, by UniProt entry; tags and fusion partners are left off. Residues count along the entry.
UniProt P08238, residues 2-724: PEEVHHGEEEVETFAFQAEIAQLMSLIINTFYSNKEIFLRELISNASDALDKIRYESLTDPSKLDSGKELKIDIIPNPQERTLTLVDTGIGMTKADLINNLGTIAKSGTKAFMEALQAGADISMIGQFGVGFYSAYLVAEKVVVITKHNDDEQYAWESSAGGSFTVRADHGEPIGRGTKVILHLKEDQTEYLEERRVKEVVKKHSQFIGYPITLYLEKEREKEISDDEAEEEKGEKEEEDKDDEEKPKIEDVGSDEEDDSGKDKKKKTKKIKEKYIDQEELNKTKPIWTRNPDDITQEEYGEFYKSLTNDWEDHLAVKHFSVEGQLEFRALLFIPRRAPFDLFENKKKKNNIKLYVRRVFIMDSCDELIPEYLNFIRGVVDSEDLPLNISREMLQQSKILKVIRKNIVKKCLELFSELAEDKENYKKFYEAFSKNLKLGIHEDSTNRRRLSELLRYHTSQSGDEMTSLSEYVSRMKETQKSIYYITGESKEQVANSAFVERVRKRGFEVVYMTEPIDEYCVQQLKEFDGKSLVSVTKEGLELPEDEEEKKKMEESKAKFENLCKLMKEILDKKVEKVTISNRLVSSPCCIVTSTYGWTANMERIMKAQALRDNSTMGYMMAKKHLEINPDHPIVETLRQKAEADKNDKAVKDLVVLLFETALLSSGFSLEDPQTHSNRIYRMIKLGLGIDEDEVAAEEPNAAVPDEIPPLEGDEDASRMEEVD

What was measured:
[1] = target: HSP90 (endogenous, from MDA-MB-231 cells and MDA-MB-231 xenograft tumor lysates) (human) (UniProt P08238); assay: immunoprecipitation from xenograft tumor lysates with 15 µg HCAb, immunoblot (FIG. 11 legend)
[2] = target: HSP90 (endogenous, from MDA-MB-231 cells and MDA-MB-231 xenograft tumor lysates) (human) (UniProt P08238); assay: immunoprecipitation from MDA-MB-231 xenograft tumor lysates, immunoblot with commercial HSP90 antibody
[3] = target: HSP90 (endogenous, from MDA-MB-231 cells and MDA-MB-231 xenograft tumor lysates) (human) (UniProt P08238); assay: immunoprecipitation from MDA-MB-231 1% Triton X-100 + 0.1% SDS lysate, gel band identified by LC-MS/MS
[4] = target: HSP90 (endogenous, from MDA-MB-231 cells and MDA-MB-231 xenograft tumor lysates) (human) (UniProt P08238); assay: immunoprecipitation from cytosolic and plasma membrane fractions, immunoblot (FIG. 4A legend)
[5] = target: HSP90 (endogenous, from MDA-MB-231 cells and MDA-MB-231 xenograft tumor lysates) (human) (UniProt P08238); assay: immunoprecipitation from cytosolic and plasma membrane fractions of MDA-MB-231 cells, immunoblot with commercial HSP90 antibody

Measured: binding

B1: HCAb2 (Fc fusion, not shown: a dimerising Fc or GST)
heavy: QVQLVQSGAEVKKPGASVRVSCKIFGYRLSELSIHWVRQAPGKGLEWMGWISGWDGNTTYTQNLQGRVTMTTDTSTNSAYMELRSLRSDDTAVYYCARASGYNYSYRPLDFWGRGTLVTVSS
binds: all assays above
